Some entries share one result that the patent states for a list of compounds. At least one structure is not confirmed: it was looked up by name or label, or the drawing left a doubt.
System: Wnt-independent Renilla Luciferase (TA-Renilla) reporter in DBTRG-05MG glioblastoma cell line
Experiment: Renilla read out (TA-Renilla, Wnt-independent reporter; internal control for cell number and toxicity)
Assay type: cell-based
Settings: DBTRG-05MG cells, 24 hours after compound addition

Row | SMILES | effect in the renilla read out
1 | COc1ccc2[nH]c(=O)n(C[C@H]3CC[C@H](C(=O)N4CCN(c5ncccn5)CC4)CC3)c(=O)c2c1 [Example 98] | negligible effect
2 | CCOc1ccc2c(c1)c(=O)n(C[C@H]1CC[C@H](C(=O)N3CCN(c4ccncc4)CC3)CC1)c(=O)n2C [Example 197] | negligible effect
3 | COc1cccc(CN2CCN(C(=O)[C@H]3CC[C@H](Cn4c(=O)[nH]c5ccccc5c4=O)CC3)CC2)c1 [Example 39] | negligible effect
4 | O=C(C1CC1(F)F)N1CCN(C(=O)[C@H]2CC[C@H](Cn3c(=O)[nH]c4ccccc4c3=O)CC2)CC1 (some centres unmarked) [Example 108] | negligible effect
5 | COc1ccc2c(c1)c(=O)n(C[C@H]1CC[C@H](C(=O)N3CCN(C(=O)OCC(C)C)CC3)CC1)c(=O)n2C [Example 125] | negligible effect
6 | COC(=O)N1CCN(C(=O)[C@H]2CC[C@H](Cn3c(=O)[nH]c4ccc(OC)cc4c3=O)CC2)CC1 [Example 116] | negligible effect
7 | COc1cccc(NC(=O)[C@H]2CC[C@H](Cn3c(=O)n(C)c4ccc(OC)nc43)CC2)c1 [Example 209] | negligible effect
8 | COc1ccc2[nH]c(=O)n(C[C@H]3CC[C@H](C(=O)N4CCN(C(=O)C5CC5)[C@@H](C)C4)CC3)c(=O)c2c1 [Example 152] | negligible effect
9 | COCCN1CCN(C(=O)[C@H]2CC[C@H](Cn3c(=O)c4cc(OC)ccc4n(C)c3=O)CC2)CC1=O [Example 94] | negligible effect
10 | COC(=O)N1CCN(C(=O)[C@H]2CC[C@H](Cn3c(=O)n(C)c4ccc(OC)cc43)CC2)CC1 [Example 182] | negligible effect
11 | CCN1CCN(C(=O)[C@H]2CC[C@H](Cn3c(=O)c4cc(OC)ccc4n(C)c3=O)CC2)CC1=O [Example 93] | negligible effect
12 | O=c1[nH]c2ccccc2c(=O)n1C[C@H]1CC[C@H](C(=O)Nc2cccc3cccnc23)CC1 [Example 70] | negligible effect
13 | O=C(C1CC1)N1CCN(C(=O)[C@H]2CC[C@H](Cn3c(=O)[nH]c4ccc(F)cc4c3=O)CC2)CC1 [Example 82] | negligible effect
14 | CC(C)(F)C(=O)N1CCN(C(=O)[C@H]2CC[C@H](Cn3c(=O)[nH]c4ccccc4c3=O)CC2)CC1 [Example 107] | negligible effect
15 | COc1ccc2c(n1)n(C[C@H]1CC[C@H](C(=O)N3CCOCC3)CC1)c(=O)n2C [Example 167] | negligible effect
16 | COc1cccc(NC(=O)[C@H]2CC[C@H](Cn3c(=O)c4cc(OC)ccc4n(C)c3=O)CC2)c1 [Example 191] | negligible effect
17 | CCOc1ccc2c(c1)c(=O)n(C[C@H]1CC[C@H](C(=O)N3CCN(C(=O)COC)CC3)CC1)c(=O)n2C [Example 198] | negligible effect
18 | CCC(C)OC(=O)N1CCN(C(=O)[C@H]2CC[C@H](Cn3c(=O)[nH]c4ccc(OC)cc4c3=O)CC2)CC1 (some centres unmarked) [Example 104] | negligible effect
19 | CC(=O)N1CCN(C(=O)[C@H]2CC[C@H](Cn3c(=O)[nH]c4ccc(Cl)cc4c3=O)CC2)CC1 [Example 27] | negligible effect

Row | SMILES | effect in the renilla read out
20 | CN1CCN(C(=O)[C@H]2CC[C@H](Cn3c(=O)n(C)c4ccc(C(F)(F)F)cc43)CC2)CC1=O [Example 170] | negligible effect
21 | O=C1Nc2ccccc2CN1C[C@H]1CC[C@H](C(=O)N2CCN(c3ccccc3)CC2)CC1 [Example 45] | negligible effect
22 | COc1ccc2c(c1)n(C[C@H]1CC[C@H](C(=O)N3CCOCC3)CC1)c(=O)n2C [Example 9, 5-Methoxy-1-methyl-3-[trans-4-(morpholine-4-carbonyl)-cyclohexylmethyl]-1,3-dihydro-benzoimidazol-2-one] | negligible effect
23 | COc1ccc2c(c1)n(C[C@H]1CC[C@H](C(=O)N3CCN(C(=O)c4cc(C)nn4C)CC3)CC1)c(=O)n2C [Example 210] | negligible effect
24 | COCC(=O)N1CCN(C(=O)[C@H]2CC[C@H](Cn3c(=O)c4cc(OC)ccc4n(C)c3=O)CC2)[C@@H](C)C1 [Example 145] | negligible effect
25 | COCC(=O)N1CCN(C(=O)[C@H]2CC[C@H](Cn3c(=O)n(C)c4ccc(OC)cc43)CC2)CC1 [Example 183] | negligible effect
26 | CC(C)Cn1c(=O)n(C[C@H]2CC[C@H](C(=O)N3CCN(C(=O)C4CC4)CC3)CC2)c(=O)c2ccccc21 [Example 64] | negligible effect
27 | COc1ccc2c(c1)c(=O)n(C[C@H]1CC[C@H](C(=O)Nc3ccc(C)nc3)CC1)c(=O)n2C [Example 148] | negligible effect
28 | Cn1c(=O)n(C[C@H]2CC[C@H](C(=O)N3CCN(C(=O)C4CC4)CC3)CC2)c2c(Cl)cccc21 [Example 168] | negligible effect
29 | O=C(C1CCC1)N1CCN(C(=O)[C@H]2CC[C@H](Cn3c(=O)[nH]c4ccccc4c3=O)CC2)CC1 [Example 60] | negligible effect
30 | O=C(C1CC1)N1CCN(C(=O)[C@H]2CC[C@H](Cn3c(=O)c4ccccc4n(CC4CC4)c3=O)CC2)CC1 [Example 73] | negligible effect
31 | COc1ccc2[nH]c(=O)n(C[C@H]3CC[C@H](C(=O)N4CCN(C)C(=O)C4)CC3)c(=O)c2c1 [Example 86] | negligible effect
32 | COC(=O)N1CCN(C(=O)[C@H]2CC[C@H](Cn3c(=O)n(C)c4ccc(OC)nc43)CC2)CC1 [Example 205] | negligible effect
33 | COc1ccc2[nH]c(=O)n(C[C@H]3CC[C@H](C(=O)N4CCN(C(=O)C5CCCC5)CC4)CC3)c(=O)c2c1 [Example 65] | negligible effect
34 | O=C(C1CC1)N1CCN(C(=O)[C@H]2CC[C@H](Cn3c(=O)c4ccccc4n(C(F)F)c3=O)CC2)CC1 [Example 83] | negligible effect
35 | COc1ccc2c(c1)c(=O)n(C[C@H]1CC[C@H](C(=O)N3CCN(C(=O)n4ccnc4)CC3)CC1)c(=O)n2C [Example 171] | negligible effect
36 | COc1ccc2c(c1)c(=O)n(C[C@H]1CC[C@H](C(=O)Nc3cccc4ncccc34)CC1)c(=O)n2C [Example 188] | negligible effect
37 | COc1cccc2[nH]c(=O)n(C[C@H]3CC[C@H](C(=O)N4CCN(C(=O)C(C)C)CC4)CC3)c(=O)c12 [Example 55] | negligible effect
38 | COc1ccc2c(c1)CN(C[C@H]1CC[C@H](C(=O)N3CCN(C(=O)C4CC4)CC3)CC1)C(=O)N2 [Example 71] | negligible effect

Row | SMILES | effect in the renilla read out
39 | CC(C)C(=O)N1CCN(C(=O)[C@H]2CC[C@H](Cn3c(=O)n(C)c4ccccc43)CC2)CC1 [Example 61] | negligible effect
40 | Cn1c(=O)n(C[C@H]2CC[C@H](C(=O)N3CCOCC3)CC2)c2cc(C(F)(F)F)ccc21 [Example 10, 1-Methyl-3-[trans-4-(morpholine-4-carbonyl)-cyclohexylmethyl]-5-trifluoromethyl-1,3-dihydro-benzoimidazol-2-one] | negligible effect
41 | CCCC(C)C(=O)N1CCN(C(=O)[C@H]2CC[C@H](Cn3c(=O)c4cc(OC)ccc4n(C)c3=O)CC2)CC1 (some centres unmarked) [Example 124] | negligible effect
42 | O=c1[nH]c2ccccc2c(=O)n1C[C@H]1CC[C@H](C(=O)N2CCN(Cc3ccccc3)CC2)CC1 [Example 24] | negligible effect
43 | CC(C)N1CCN(C(=O)[C@H]2CC[C@H](Cn3c(=O)[nH]c4ccccc4c3=O)CC2)CC1 [Example 41] | negligible effect
44 | COc1ccc2c(c1)c(=O)n(C[C@H]1CC[C@H](C(=O)N3CCN(C(=O)C4CC4)CC3)CC1)c(=O)n2CC1CC1 [Example 84] | negligible effect
45 | COc1ccc2c(c1)c(=O)n(C[C@H]1CC[C@H](C(=O)Nc3ccc(OC)nc3)CC1)c(=O)n2C [Example 154] | negligible effect
46 | O=C1CC(c2ccccc2)NC(=O)N1C[C@H]1CC[C@H](C(=O)N2CCN(c3ccccc3)CC2)CC1 (some centres unmarked) [Example 44] | negligible effect
47 | COCC(=O)N1CCN(C(=O)[C@H]2CC[C@H](Cn3c(=O)c4cc(OC)ccc4n(C)c3=O)CC2)CC1 [Example 66] | negligible effect
48 | COc1ccc2[nH]c(=O)n(C[C@H]3CC[C@H](C(=O)N4CCN(C(=O)OC(C)C)CC4)CC3)c(=O)c2c1 [Example 103] | negligible effect
49 | Cn1c(=O)n(C[C@H]2CC[C@H](C(=O)N3CCN(C(=O)C4CC4)CC3)CC2)c2ccccc21 [Example 80] | negligible effect
50 | Cn1c(=O)n(C[C@H]2CC[C@H](C(=O)N3CCN(C(=O)C4CCCO4)CC3)CC2)c(=O)c2ccccc21 (some centres unmarked) [Example 81] | negligible effect
51 | COc1ccc2c(c1)c(=O)n(C[C@H]1CC[C@H](C(=O)N3CCN(C(=O)OC(C)C)CC3)CC1)c(=O)n2C [Example 130] | negligible effect
52 | COCC(=O)N1CCN(C(=O)[C@H]2CC[C@H](Cn3c(=O)c4ccccc4n(C)c3=O)CC2)CC1 [Example 53] | negligible effect
53 | COc1ccc2[nH]c(=O)n(C[C@H]3CC[C@H](C(=O)N4CCOCC4)CC3)c2c1 [Example 8, 6-Methoxy-1-[trans-4-(morpholine-4-carbonyl)-cyclohexylmethyl]-1,3-dihydro-benzoimidazol-2-one] | negligible effect
54 | Cc1ccc2c(n1)n(C[C@H]1CC[C@H](C(=O)N3CCN(C(=O)C4CC4)CC3)CC1)c(=O)n2C [Example 169] | negligible effect
55 | CN1C(=O)N(C[C@H]2CC[C@H](C(=O)N3CCN(C(=O)C4CCCC4)CC3)CC2)Cc2ccccc21 [Example 68] | negligible effect
56 | O=C(C1CCC(Cn2c(=O)[nH]c3ccccc3c2=O)CC1)N1CCOCC1 (centres unmarked) [Example 22] | negligible effect

Reference: patent US8865704B2, “Wnt pathway antagonists” (Siena Biotech S.p.A., priority 2009, dated 2014)
